Test results published in publication PMC4559392.
These are yes or no findings as the source states them, for the method shown. In cells and extracts the contact can be indirect. Binding calls can cover weak binding; strength is not graded here.

Chains of the proteins cited; added tags and fusions are not shown. Lines headed by an entry give the natural chain unless they say otherwise; changes in a name come on top.
UniProt P18431: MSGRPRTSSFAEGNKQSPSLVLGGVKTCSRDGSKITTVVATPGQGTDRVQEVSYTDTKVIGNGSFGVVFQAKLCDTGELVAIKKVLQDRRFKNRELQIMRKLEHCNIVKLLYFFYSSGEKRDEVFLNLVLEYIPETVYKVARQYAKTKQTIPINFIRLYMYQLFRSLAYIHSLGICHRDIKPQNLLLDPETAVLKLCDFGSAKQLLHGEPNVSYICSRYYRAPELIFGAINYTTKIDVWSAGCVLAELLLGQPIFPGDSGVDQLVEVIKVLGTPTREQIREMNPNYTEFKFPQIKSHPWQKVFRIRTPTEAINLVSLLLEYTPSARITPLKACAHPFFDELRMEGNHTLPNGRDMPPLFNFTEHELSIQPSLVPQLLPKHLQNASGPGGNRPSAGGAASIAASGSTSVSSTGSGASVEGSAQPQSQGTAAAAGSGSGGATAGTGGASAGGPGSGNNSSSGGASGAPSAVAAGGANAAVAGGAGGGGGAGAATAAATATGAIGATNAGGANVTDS
UniProt P51592: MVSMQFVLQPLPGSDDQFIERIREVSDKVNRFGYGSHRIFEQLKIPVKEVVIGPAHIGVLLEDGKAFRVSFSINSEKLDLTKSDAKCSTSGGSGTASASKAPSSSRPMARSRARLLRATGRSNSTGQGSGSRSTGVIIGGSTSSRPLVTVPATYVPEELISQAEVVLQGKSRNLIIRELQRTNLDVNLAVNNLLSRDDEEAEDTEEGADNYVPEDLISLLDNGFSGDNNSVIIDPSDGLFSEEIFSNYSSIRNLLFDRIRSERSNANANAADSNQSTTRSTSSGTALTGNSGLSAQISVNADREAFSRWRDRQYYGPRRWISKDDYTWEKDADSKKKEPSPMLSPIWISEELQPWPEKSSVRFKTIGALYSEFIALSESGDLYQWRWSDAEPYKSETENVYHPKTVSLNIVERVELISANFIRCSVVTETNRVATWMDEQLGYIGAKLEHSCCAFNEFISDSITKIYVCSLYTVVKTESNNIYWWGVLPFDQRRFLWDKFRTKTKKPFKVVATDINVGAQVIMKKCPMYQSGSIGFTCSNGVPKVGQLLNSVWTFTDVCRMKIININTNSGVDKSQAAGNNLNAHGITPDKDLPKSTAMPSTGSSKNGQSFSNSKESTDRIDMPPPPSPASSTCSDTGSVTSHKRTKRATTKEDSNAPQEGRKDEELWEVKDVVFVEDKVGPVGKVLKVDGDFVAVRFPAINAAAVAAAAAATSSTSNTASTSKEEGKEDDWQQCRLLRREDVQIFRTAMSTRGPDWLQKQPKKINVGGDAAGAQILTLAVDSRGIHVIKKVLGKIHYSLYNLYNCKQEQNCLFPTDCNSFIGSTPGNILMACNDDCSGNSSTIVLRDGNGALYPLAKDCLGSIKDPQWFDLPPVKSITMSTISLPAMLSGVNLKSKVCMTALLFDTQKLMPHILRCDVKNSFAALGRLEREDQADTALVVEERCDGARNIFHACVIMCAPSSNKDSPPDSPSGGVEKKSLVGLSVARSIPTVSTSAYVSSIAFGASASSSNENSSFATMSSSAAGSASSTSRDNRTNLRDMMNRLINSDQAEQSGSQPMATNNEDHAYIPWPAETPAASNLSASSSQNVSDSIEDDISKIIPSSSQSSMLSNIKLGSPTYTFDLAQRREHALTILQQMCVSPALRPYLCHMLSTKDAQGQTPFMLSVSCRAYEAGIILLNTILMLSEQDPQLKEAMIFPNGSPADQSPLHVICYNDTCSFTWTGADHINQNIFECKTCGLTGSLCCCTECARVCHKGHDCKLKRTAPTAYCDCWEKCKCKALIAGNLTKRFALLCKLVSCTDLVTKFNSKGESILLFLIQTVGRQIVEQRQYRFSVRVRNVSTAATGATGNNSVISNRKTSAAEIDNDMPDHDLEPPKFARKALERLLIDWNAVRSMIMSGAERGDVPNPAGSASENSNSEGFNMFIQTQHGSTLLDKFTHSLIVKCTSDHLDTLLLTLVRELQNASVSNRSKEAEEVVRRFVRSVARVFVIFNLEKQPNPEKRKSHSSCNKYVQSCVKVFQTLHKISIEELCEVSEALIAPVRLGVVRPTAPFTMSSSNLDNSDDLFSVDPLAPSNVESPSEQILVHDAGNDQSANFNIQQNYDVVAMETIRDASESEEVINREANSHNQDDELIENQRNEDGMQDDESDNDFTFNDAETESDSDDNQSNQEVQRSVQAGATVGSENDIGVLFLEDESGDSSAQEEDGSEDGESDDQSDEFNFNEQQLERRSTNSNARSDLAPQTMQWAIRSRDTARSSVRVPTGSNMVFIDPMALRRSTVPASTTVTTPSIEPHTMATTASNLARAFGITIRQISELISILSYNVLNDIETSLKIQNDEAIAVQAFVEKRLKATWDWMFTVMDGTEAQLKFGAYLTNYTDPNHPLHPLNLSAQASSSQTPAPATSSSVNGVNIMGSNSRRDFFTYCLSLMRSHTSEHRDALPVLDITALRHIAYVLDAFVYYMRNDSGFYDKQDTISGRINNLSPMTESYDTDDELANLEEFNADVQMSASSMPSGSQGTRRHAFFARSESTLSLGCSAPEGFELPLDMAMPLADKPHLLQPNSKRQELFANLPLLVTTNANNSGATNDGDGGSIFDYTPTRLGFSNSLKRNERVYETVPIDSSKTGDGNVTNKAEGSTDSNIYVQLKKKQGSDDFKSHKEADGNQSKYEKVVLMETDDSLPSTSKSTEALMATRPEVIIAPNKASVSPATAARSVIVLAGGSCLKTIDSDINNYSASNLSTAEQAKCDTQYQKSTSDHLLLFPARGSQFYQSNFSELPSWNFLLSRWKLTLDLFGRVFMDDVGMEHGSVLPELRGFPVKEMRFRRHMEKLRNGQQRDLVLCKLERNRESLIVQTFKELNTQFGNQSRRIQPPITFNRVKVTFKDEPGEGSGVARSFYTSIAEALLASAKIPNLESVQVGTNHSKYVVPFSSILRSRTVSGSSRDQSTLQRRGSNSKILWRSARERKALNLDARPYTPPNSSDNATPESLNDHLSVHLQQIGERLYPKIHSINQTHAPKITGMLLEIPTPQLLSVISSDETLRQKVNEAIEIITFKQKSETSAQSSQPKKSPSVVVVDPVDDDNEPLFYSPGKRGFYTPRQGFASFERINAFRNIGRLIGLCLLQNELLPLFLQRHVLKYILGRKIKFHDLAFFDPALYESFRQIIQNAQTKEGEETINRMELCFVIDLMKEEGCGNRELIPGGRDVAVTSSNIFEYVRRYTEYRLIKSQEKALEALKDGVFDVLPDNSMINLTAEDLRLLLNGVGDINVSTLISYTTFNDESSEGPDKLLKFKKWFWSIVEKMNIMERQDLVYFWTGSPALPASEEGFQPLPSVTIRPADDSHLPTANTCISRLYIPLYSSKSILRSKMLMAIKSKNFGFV

Biological target: Sgg-FLAG (Shaggy, the Drosophila GSK3β homologue) (Drosophila melanogaster) (UniProt P18431)
Test: co-IP; S2 cells co-transfected with hyd (mutant) and sgg-FLAG constructs; FLAG-affinity purified complexes analysed by Western blot

Q: With “Hyd PABC^mt (Y2509A+C2527A) (from UniProt P51592)” as the substance, how does the binding read?
A: binds
